The test system of one data set is prostate cancer cells. The data set can be described thus: Growth inhibition / cell death of prostate cancer cell cultures. The format is cell-based. The source says: RAGE activation promotes proliferation, invasive bone homing, and metastasis of PCa cells.
Another data set concerns NSCLC cells. The following applies: read-out: LC50 (lysosomal catastrophe); NSCLC (non-small cell lung cancer) cells; cited from earlier work.

Where only a bound is given, the exact number is not on record here.

One may read the inhibition as the share of the control response that was lost under treatment.

`CC(C)(C)c1ccc(C(=O)CCCN2CCC(OC(c3ccccc3)c3ccccc3)CC2)cc1` [EBS, 4-[4-(Diphenylmethoxy)-1-piperidinyl]-1-[4-(2-methyl-2-propanyl)phenyl]-1-butanone, reference compound]: the inhibition at 10 µM with prostate cancer cells (prostate cancer cell cultures, 10 μM, 24 h) is at most 50%. Further, in the data set with prostate cancer cells (prostate cancer cells), the “concentration required for growth inhibition” value was determined as 10 µM. Moreover, the CC50 in the data set with NSCLC cells was 18 to 22 µM.

The values above are taken from US20220387412A1, “Novel Superebastine Against Therapy Resistant Prostate Cancer” (University of Kentucky Research Foundation, priority 2019, published 2022).
